In PMC7994712 (Nature Communications, 2021):
These are yes or no findings as the source states them, for the method shown. Some entries that bind do so weakly or less than the wild type.

The chains behind the UniProt entries cited, without tags or fusion partners. Where a name states a change or a piece, a line headed by the entry shows the natural chain unless it says otherwise.
UniProt P30874: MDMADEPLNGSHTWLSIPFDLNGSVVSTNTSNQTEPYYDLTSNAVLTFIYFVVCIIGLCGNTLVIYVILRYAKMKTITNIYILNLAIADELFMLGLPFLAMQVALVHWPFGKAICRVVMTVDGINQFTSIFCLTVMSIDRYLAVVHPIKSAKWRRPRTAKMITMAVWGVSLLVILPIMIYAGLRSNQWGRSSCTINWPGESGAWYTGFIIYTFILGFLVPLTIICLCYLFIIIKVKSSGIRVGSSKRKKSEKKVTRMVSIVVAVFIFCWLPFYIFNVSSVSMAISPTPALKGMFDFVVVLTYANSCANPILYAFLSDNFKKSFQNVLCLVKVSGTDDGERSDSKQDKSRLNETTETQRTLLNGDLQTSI
UniProt Q62949: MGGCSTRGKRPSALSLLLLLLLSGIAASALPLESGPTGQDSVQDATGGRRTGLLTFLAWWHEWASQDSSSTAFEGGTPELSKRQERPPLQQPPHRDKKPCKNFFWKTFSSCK

Target: Somatostatin receptor 2 (SSTR2) (human) (UniProt P30874)
Experiment: radioligand binding; competition with 125I-Tyr11 SST14 on CHO-K1 cells expressing one of the five human somatostatin receptors each; HEPES buffer pH 7.4; 10 concentrations from 1 pM to 10 µM; 2–4 h; membranes filtered and washed three times; nonspecific binding with 1 µM SST; IC50 by three-parameter dose-response fit; done at Eurofins Panlabs; only the binder purified

B1: Cortistatin-14 (r,mCST-14) (peptide, UniProt Q62949 99-112)
peptide: PCKNFFWKTFSSCK
modifications: internal disulfide bond between the two cysteines (cyclic peptide)
Q: B1 was tested. Which binding did it give?
A: binds
